# Experimental data taken from patent publication EP1985624A2 (Bayer Schering Pharma Aktiengesellschaft, priority 2007, dated 2008).
# Test: general procedure: Fmoc solid-phase peptide synthesis; Rink amide resin; DCC, DCCI, HOBt
# Settings: late stage modification step
row,Substance,step yield [%]
1,"^19F-Si(iPr)2-C6H4-CH2-CO-Ava--Gln-Trp-Ala-Val-Gly-His(3Me)-4-Am,5-MeHpA-Leu-NH2",30
2,"^19F-Si(tBu)2-C6H4-CH2-CO-Ava--Gln-Trp-Ala-Val-NMeGly-His(3Me)-4-Am,5-MeHpA-Cpa-NH2",41
